The values below come from paper PMC11335579.

The chains behind the UniProt entries cited, without tags or fusion partners. Residues count along the entry.
UniProt P46937: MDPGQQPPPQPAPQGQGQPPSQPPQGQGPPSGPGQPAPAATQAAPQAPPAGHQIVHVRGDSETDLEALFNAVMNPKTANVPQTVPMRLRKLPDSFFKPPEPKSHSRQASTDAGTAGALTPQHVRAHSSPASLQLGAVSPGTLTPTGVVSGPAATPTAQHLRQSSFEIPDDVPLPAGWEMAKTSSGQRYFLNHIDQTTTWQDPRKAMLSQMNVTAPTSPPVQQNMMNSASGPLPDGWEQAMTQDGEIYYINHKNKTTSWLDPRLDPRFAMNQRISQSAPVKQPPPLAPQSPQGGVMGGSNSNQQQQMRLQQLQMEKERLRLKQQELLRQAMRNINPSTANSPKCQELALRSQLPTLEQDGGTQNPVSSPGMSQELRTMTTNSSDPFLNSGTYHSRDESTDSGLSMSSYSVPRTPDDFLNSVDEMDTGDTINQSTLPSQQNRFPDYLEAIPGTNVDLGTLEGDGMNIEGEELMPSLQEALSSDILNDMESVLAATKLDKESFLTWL
UniProt P29279, residues 27-349: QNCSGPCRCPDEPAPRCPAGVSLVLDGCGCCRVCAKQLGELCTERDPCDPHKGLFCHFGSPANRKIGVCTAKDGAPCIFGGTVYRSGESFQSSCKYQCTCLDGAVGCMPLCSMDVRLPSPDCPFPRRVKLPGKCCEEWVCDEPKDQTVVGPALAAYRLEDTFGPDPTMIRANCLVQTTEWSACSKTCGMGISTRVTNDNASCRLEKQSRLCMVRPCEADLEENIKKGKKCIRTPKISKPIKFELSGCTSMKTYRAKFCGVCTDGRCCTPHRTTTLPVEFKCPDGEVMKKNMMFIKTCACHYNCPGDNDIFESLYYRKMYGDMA

No constants are given. Whether binding was seen depends on the method and setting. Binding seen in cells or lysates may run through a third protein. Some results given as binding are weak or reduced against the parent protein; the word gives no strength.

This test addresses Yes-associated protein (YAP) (human (endogenous in CAFs from NSCLC patients)) (UniProt P46937). Nature of the test: co-IP; lysates of the indicated CAFs; coimmunoprecipitation kit (Absin #abs9649); lysate with YAP, CD248 or rabbit IgG antibody (2 ug per 1 mg of total protein) for 60 min, then secondary-antibody-bound beads overnight at 4°C; Western blot.

Regarding “Connective tissue growth factor (CTGF) (from UniProt P29279 27-349)”, the binding entry was “binds”.
